Values from PubChem BioAssay AID504791 (Drosophila RNAi Screening Center, 2011).
Assay: 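Factors in Argonaute-based small RNA production and activity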 (primary screen). Cells: Drosophila S2-derived reporter cells. Knock-down reagent: long dsRNA against Drosophila genes, about 150-250 ng dsRNA per well (siRNA assay); about 80-120 ng (miRNA assay). Time to read-out: about 5 days (siRNA assay); about 4 days (miRNA assay). Conditions: copper sulfate induction of reporters: 25 µM (siRNA assay); 200 mM stated (miRNA assay), 1-2 days before reading. Detection: 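Dual luciferase assay: Renilla to firefly signal ratio in each well, scaled to the mean ratio of its plate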. Units: stable assay Renilla, run 1 in luminescence; stable assay firefly, run 1 in luminescence. Active means: 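First-pass picks had plate-scaled ratios over 1.5 for the siRNA assay, over 1.6 for the miRNA assay, or under 0.6; two distinct dsRNAs had to score alike on retest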.
The deposit covers about 23,000 reagents; below is an unselected part of those that have a named target and a result. In the full data, 199 (0.86%) are marked active. 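Plate-scaled ratios behind the calls are not deposited; printed light signals are raw; many rows marked increased or decreased are still called inactive.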 Unmarked entries are inactive. Reagents against one gene are numbered here. Names joined by + are all predicted targets of the reagent. Not stated in the record: the direction of the score.

With CG4168 #1, what was measured?
stable assay Renilla, run 1: 5283; stable assay firefly, run 1: 3.82e5

What did the screen give for CG4168 #2?
stable assay Renilla, run 1: 5654; stable assay firefly, run 1: 4.05e5

How did the screen score CG4168 #3?
stable assay Renilla, run 1: 69869; stable assay firefly, run 1: 1.36e6

What did the screen give for CG4168 #4?
stable assay Renilla, run 1: 8739; stable assay firefly, run 1: 5.61e5

For CG4168 #5, how do the results read?
stable assay Renilla, run 1: 4191; stable assay firefly, run 1: 4.30e5

With Septin4 (Septin 4), how do the results read?
stable assay Renilla, run 1: 7656; stable assay firefly, run 1: 5.35e5

With Cul2 (Cullin 2), what does the deposit list?
stable assay Renilla, run 1: 58971; stable assay firefly, run 1: 4.66e5

What is on record for VhaM9.7-a (Vacuolar H[+] ATPase M9.7 subunit a)?
stable assay Renilla, run 1: 6418; stable assay firefly, run 1: 4.04e5

For LanB2 (Laminin B2), how do the results read?
stable assay Renilla, run 1: 7673; stable assay firefly, run 1: 4.08e5

With CG10237, how do the results read?
stable assay Renilla, run 1: 15845; stable assay firefly, run 1: 1.62e6

For lncRNA:Hsromega (Heat shock RNA omega), what was measured?
stable assay Renilla, run 1: 4307; stable assay firefly, run 1: 5.02e5

How did the screen score nAChRbeta2 (nicotinic Acetylcholine Receptor beta2)?
stable assay Renilla, run 1: 11552; stable assay firefly, run 1: 4.42e5

What is on record for IA-2 (IA-2 protein tyrosine phosphatase) #1?
stable assay Renilla, run 1: 12965; stable assay firefly, run 1: 3.45e5

What did the screen give for IA-2 (IA-2 protein tyrosine phosphatase) #2?
stable assay Renilla, run 1: 14305; stable assay firefly, run 1: 6.67e5

For IA-2 (IA-2 protein tyrosine phosphatase) #3, how do the results read?
stable assay Renilla, run 1: 3603; stable assay firefly, run 1: 2.68e5

What is on record for cora (coracle)?
stable assay Renilla, run 1: 5895; stable assay firefly, run 1: 3.55e5

What is on record for slpr (slipper) #1?
stable assay Renilla, run 1: 8118; stable assay firefly, run 1: 5.79e5

With slpr (slipper) #2, what does the deposit list?
stable assay Renilla, run 1: 5083; stable assay firefly, run 1: 2.79e5

Looked up above:
Under “stable assay firefly, run 1”, CG4168 #3 reads 1.36e6
For “stable assay Renilla, run 1”, VhaM9.7-a (Vacuolar H[+] ATPase M9.7 subunit a) reads 6418
Result for cora (coracle) under “stable assay Renilla, run 1”: 5895

The results go on.
Which result is listed for bcd + CR14578?
stable assay Renilla, run 1: 5387; stable assay firefly, run 1: 4.87e5

What did the screen give for M1BP (Motif 1 Binding Protein)?
stable assay Renilla, run 1: 7246; stable assay firefly, run 1: 3.84e5

With Rlb1, how do the results read?
stable assay Renilla, run 1: 6451; stable assay firefly, run 1: 3.90e5

With CG14450, how do the results read?
stable assay Renilla, run 1: 7074; stable assay firefly, run 1: 4.46e5

Which result is listed for Alas (Aminolevulinate synthase)?
stable assay Renilla, run 1: 7374; stable assay firefly, run 1: 1.40e6

Which result is listed for CG18132?
stable assay Renilla, run 1: 7234; stable assay firefly, run 1: 4.19e5

How did the screen score CG18823?
stable assay Renilla, run 1: 6232; stable assay firefly, run 1: 3.92e5

What did the screen give for ecd (ecdysoneless)?
stable assay Renilla, run 1: 12019; stable assay firefly, run 1: 3.47e5

With trh (trachealess) #1, what does the deposit list?
stable assay Renilla, run 1: 6231; stable assay firefly, run 1: 3.03e5

How did the screen score trh (trachealess) #2?
stable assay Renilla, run 1: 6163; stable assay firefly, run 1: 3.21e5
